# Read-outs that look alike come from different tables or passages of the source.
# What was measured:
# [1] = Solubility and drug retention in surgical lubricant/surfactant mixture; details: 0.6 mL Polysorbate 20 in 19.4 mL lubricant, each component
# Procedure: A commercially available surgical lubricant (SURGILUBE® lubricant) was combined with a surfactant. The surfactant was Polysorbate 20, and 0.6 mL of the Polysorbate 20 was added to 19.4 mL of the surgical lubricant.
# However, more surfactant may be added to increase drug concentration, e.g., up to about 500 μM.
# [2] = system: hUSMCs; details: for Percentages of Cells that Remained Contracted After Treatment: ROCK 0 μM
structure (smiles),measurement,setting,value
COC(=O)C1=C(C)NC(C)=C(C(=O)OC)C1c1ccccc1[N+](=O)[O-] [Nifedipine],actual drug retention in the surgical lubricant/surfactant mixture,[1],about 200 μM
same,relaxation,"[2]; 25 μM alone, 8 hour exposure",45%
same,Percentages of Cells that Remained Contracted After Treatment,[2]; Nifedipine 1.56 μM,99%
same,Percentages of Cells that Remained Contracted After Treatment,[2]; Nifedipine 6.25 μM,101%
same,Percentages of Cells that Remained Contracted After Treatment,[2]; Nifedipine 12.50 μM,100%
same,Percentages of Cells that Remained Contracted After Treatment,[2]; Nifedipine 25.00 μM,55%

# From patent publication US12109301B2, “Formulations, methods, and systems for treating genitourinary conditions” (Massachusetts Institute of Technology, priority 2017, dated 2024)
